In PMC3276143:
These are yes or no findings as the source states them, for the method shown. Binding seen in cells or lysates may run through a third protein. For some of these results: Sequences can lack the tags named with a protein. One block for each molecule: values may come before it.

Sequences of proteins named here, by UniProt entry; tags and fusion partners are left off.
UniProt O00311: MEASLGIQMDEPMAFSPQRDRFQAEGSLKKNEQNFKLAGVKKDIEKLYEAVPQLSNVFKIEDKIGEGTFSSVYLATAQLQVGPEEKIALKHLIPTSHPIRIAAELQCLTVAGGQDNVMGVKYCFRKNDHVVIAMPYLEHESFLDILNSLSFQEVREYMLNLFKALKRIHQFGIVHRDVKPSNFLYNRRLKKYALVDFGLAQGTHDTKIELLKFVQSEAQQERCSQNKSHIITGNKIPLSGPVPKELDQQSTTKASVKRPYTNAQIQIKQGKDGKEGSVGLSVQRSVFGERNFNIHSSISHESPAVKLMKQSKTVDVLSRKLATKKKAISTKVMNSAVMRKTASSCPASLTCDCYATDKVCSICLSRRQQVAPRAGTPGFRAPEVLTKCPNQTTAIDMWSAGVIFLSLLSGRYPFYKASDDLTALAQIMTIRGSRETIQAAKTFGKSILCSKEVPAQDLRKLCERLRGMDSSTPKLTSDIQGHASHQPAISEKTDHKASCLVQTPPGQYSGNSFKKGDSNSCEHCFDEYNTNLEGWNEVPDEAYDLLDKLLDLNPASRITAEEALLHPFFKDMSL
UniProt P06243: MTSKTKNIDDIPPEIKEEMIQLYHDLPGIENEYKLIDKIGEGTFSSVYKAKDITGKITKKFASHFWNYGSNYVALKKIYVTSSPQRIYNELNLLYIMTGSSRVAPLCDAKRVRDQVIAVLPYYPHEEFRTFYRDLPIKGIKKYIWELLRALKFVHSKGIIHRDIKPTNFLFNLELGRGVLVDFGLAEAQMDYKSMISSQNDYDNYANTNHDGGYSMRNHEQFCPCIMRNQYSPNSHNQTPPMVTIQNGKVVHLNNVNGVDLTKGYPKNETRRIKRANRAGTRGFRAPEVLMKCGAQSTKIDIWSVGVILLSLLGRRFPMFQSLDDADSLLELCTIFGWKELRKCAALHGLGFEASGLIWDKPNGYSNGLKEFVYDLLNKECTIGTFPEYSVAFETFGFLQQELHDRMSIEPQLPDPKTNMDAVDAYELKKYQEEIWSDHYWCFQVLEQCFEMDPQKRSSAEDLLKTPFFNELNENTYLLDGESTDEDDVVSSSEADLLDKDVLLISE

Experiments:
[1] = target: T1, TAP-ScDbf4 (S. cerevisiae Dbf4 fused to a tandem affinity purification tag) (S. cerevisiae) (UniProt P32325); experiment: co-IP; TAP-tagged bait isolated from yeast cell extract on rabbit IgG coupled Epoxy M270 Dynabeads, 2 h at 4°; lysis buffer 25 mM Tris-HCl pH 8.0, 150 mM NaCl, 0.1 mM EDTA, 0.1% NP40; bound proteins detected by Western blotting
T1 sequence: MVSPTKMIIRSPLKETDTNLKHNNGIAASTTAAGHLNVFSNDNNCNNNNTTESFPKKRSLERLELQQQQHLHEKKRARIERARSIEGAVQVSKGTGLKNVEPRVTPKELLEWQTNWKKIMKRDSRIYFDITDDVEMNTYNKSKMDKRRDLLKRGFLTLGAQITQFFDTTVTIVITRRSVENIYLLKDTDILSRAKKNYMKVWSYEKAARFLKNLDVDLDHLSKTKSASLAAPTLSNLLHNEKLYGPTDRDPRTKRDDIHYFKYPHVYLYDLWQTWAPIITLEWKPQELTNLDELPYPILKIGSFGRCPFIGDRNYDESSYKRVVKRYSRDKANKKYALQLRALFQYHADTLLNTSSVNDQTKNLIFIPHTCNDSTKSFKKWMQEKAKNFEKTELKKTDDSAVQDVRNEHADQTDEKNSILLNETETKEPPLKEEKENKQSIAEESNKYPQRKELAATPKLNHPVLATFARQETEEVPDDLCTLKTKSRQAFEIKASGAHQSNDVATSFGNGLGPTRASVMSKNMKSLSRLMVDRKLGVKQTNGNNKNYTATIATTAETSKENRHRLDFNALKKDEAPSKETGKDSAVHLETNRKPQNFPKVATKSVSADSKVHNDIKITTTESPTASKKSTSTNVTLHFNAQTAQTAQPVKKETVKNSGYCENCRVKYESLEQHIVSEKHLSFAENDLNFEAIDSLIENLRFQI

[2] = target: T2, HsDbf4 (human Dbf4) as used in the reciprocal experiment of Figure S1 (human) (UniProt Q9UBU7); experiment: co-IP; reciprocal experiment in which antibodies to the human proteins were used (Figure S1)
T2 sequence: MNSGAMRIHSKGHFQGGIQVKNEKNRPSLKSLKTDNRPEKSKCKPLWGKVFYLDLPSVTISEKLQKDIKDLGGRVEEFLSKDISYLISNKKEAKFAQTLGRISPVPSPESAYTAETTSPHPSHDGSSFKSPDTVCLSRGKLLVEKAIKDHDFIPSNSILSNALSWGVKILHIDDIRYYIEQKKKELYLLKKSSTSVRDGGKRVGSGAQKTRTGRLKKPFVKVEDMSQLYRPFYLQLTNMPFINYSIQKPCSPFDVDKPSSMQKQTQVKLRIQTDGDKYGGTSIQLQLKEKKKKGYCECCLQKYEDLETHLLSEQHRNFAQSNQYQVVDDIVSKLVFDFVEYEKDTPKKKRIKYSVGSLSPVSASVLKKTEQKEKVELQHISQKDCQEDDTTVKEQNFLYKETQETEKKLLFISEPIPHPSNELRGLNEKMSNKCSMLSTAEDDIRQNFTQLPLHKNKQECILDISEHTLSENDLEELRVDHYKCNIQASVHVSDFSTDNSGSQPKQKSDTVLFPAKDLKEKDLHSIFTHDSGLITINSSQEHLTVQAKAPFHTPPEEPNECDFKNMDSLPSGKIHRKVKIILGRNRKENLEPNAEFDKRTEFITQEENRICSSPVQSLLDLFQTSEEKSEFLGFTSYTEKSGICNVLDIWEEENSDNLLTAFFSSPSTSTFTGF

[3] = target: HsCdc7 (human Cdc7) as used in the reciprocal experiment of Figure S1 (human) (UniProt O00311); experiment: as above
[4] = target: TAP-ScCdc7 (S. cerevisiae Cdc7 with a tandem affinity purification tag) (S. cerevisiae) (UniProt P06243); experiment: co-IP; TAP-tagged bait isolated from yeast cell extract on rabbit IgG coupled Epoxy M270 Dynabeads, 2 h at 4°; lysis buffer 25 mM Tris-HCl pH 8.0, 150 mM NaCl, 0.1 mM EDTA, 0.1% NP40; bound proteins detected by Western blotting

Molecule: myc^9-HsCdc7 (myc9-tagged human Cdc7) (from UniProt O00311 1-574)
binding [1]: no binding

Molecule: ScCdc7 (S. cerevisiae Cdc7) (from UniProt P06243 1-507)
binding [2]: no binding

More lines, now with the values ahead:

binding [3]: no binding
B1: ScDbf4 (S. cerevisiae Dbf4) (protein, UniProt P32325 1-704)
chain: T1 sequence

binding [4]: no binding
B2: myc^9-HsDbf4 (myc9-tagged human Dbf4) (protein, UniProt Q9UBU7 1-674)
chain: T2 sequence
